Drawing on paper PMC4053355, this text covers binding for one molecule.

Chains of the proteins cited; added tags and fusions are not shown.
UniProt Q15643: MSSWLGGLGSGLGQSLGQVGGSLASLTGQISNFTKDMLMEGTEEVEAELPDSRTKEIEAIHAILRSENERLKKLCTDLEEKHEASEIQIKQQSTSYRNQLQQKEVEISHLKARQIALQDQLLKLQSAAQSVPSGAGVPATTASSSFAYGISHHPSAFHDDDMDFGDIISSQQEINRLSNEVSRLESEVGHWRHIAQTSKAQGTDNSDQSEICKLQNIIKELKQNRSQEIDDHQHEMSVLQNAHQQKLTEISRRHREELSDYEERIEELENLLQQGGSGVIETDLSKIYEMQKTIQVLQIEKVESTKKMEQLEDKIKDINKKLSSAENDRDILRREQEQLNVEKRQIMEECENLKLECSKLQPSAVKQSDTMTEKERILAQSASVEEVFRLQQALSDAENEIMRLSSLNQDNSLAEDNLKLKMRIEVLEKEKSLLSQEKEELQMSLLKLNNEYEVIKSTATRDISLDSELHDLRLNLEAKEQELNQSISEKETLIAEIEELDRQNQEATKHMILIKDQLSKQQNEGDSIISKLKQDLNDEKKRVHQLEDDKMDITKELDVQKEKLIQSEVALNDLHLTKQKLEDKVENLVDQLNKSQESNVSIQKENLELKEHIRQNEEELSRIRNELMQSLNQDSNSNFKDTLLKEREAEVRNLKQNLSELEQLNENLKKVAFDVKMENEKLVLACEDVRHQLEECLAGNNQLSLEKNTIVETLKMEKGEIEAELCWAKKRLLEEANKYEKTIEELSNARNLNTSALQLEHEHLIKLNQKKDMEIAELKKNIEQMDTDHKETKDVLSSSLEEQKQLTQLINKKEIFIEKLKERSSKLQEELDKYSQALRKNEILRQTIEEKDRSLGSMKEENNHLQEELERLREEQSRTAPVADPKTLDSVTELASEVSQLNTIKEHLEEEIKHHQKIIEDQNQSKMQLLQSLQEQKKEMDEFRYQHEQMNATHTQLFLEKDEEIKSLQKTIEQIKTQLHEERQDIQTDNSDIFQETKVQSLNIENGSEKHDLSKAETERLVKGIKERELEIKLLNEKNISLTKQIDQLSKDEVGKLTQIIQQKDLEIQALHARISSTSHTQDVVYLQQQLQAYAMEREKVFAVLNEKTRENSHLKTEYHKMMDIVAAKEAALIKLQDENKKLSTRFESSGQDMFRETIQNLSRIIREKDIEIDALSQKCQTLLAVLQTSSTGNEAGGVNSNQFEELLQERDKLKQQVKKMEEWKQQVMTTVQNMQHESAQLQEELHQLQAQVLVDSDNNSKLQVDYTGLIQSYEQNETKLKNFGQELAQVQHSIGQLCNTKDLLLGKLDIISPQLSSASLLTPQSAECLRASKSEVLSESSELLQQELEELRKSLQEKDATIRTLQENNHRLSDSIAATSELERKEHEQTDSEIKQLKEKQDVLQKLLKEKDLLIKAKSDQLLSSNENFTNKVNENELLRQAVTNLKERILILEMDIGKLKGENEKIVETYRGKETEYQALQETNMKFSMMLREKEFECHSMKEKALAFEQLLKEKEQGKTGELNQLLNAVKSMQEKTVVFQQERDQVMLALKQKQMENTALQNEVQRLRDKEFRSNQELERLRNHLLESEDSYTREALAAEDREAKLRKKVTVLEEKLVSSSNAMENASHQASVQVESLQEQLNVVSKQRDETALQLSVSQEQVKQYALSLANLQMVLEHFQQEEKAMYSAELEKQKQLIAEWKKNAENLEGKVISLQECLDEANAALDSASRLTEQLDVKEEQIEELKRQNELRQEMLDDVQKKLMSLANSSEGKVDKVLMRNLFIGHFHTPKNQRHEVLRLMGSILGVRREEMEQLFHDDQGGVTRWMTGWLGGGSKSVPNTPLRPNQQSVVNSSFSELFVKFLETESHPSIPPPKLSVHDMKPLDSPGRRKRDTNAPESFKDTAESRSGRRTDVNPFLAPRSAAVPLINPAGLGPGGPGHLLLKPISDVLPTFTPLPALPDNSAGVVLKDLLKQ

Results are given in words; binding and its absence hold for the method and conditions named. In cells and extracts the contact can be indirect. Some entries that bind do so weakly or less than the wild type.

The target of this assay is thyroid hormone receptor/retinoblastoma-interacting protein-230 (TRIP230) (human (endogenous in MCF7)) (UniProt Q15643). The experiment in a line: co-IP; about 1 mg nuclear extract of MCF7 cells kept in 1% O2 for 6 h, 5 µg anti-TRIP230 mouse IgG or control mouse IgG, 4°C 90 min, Protein-G sepharose; immuno-blot for TRIP230, ARNT and Rb.

B1: retinoblastoma protein (Rb) (protein, UniProt P06400 1-928)
chain: MPPKTPRKTAATAAAAAAEPPAPPPPPPPEEDPEQDSGPEDLPLVRLEFEETEEPDFTALCQKLKIPDHVRERAWLTWEKVSSVDGVLGGYIQKKKELWGICIFIAAVDLDEMSFTFTELQKNIEISVHKFFNLLKEIDTSTKVDNAMSRLLKKYDVLFALFSKLERTCELIYLTQPSSSISTEINSALVLKVSWITFLLAKGEVLQMEDDLVISFQLMLCVLDYFIKLSPPMLLKEPYKTAVIPINGSPRTPRRGQNRSARIAKQLENDTRIIEVLCKEHECNIDEVKNVYFKNFIPFMNSLGLVTSNGLPEVENLSKRYEEIYLKNKDLDARLFLDHDKTLQTDSIDSFETQRTPRKSNLDEEVNVIPPHTPVRTVMNTIQQLMMILNSASDQPSENLISYFNNCTVNPKESILKRVKDIGYIFKEKFAKAVGQGCVEIGSQRYKLGVRLYYRVMESMLKSEEERLSIQNFSKLLNDNIFHMSLLACALEVVMATYSRSTSQNLDSGTDLSFPWILNVLNLKAFDFYKVIESFIKAEGNLTREMIKHLERCEHRIMESLAWLSDSPLFDLIKQSKDREGPTDHLESACPLNLPLQNNHTAADMYLSPVRSPKKKGSTTRVNSTANAETQATSAFQTQKPLKSTSLSLFYKKVYRLAYLRLNTLCERLLSEHPELEHIIWTLFQHTLQNEYELMRDRHLDQIMMCSMYGICKVKNIDLKFKIIVTAYKDLPHAVQETFKRVLIKEEEYDSIIVFYNSVFMQRLKTNILQYASTRPPTLSPIPHIPRSPYKFPSSPLRIPGGNIYISPLKSPYKISEGLPTPTKMTPRSRILVSIGESFGTSEKFQKINQMVCNSDRVLKRSAEGSNPPKPLKKLRFDIEGSDEADGSKHLPGESKFQQKLAEMTSTRTRMQKQKMNDSMDTSNKEEK
As to B1, the binding result is reported as “binds”.
